Assay results: the supplement of paper PMC10849652
Some of the results follow. Residues, ends and D or L forms follow the SMILES beside them. *: point of attachment. Cbz = O=C(OCc1ccccc1)*

Sequences of proteins named here, by UniProt entry; tags and fusion partners are left off. A change or cut given only in a name is not applied to a line headed by its entry.
UniProt Q8N752: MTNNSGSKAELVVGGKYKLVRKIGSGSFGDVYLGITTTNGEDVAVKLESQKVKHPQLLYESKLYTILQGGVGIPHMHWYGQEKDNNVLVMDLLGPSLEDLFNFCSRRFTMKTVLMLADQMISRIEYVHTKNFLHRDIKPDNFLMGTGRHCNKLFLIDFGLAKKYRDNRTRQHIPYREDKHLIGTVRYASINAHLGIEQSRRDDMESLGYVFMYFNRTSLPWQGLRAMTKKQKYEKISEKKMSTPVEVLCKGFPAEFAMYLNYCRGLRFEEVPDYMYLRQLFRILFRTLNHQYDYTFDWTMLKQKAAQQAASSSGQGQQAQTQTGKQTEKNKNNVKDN
UniProt Q14019: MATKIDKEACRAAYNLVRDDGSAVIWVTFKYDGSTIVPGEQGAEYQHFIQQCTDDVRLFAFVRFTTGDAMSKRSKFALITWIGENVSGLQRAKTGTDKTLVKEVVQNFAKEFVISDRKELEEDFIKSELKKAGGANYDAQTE
UniProt Q7L5N1: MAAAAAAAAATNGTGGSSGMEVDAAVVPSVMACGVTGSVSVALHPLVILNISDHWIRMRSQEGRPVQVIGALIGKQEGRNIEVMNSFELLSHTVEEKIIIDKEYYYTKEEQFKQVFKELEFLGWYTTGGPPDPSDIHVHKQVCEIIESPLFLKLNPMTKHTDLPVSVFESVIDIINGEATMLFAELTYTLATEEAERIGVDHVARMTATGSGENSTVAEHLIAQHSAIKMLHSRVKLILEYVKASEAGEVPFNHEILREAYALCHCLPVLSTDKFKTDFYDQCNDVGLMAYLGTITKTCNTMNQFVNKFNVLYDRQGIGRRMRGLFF
UniProt P31146: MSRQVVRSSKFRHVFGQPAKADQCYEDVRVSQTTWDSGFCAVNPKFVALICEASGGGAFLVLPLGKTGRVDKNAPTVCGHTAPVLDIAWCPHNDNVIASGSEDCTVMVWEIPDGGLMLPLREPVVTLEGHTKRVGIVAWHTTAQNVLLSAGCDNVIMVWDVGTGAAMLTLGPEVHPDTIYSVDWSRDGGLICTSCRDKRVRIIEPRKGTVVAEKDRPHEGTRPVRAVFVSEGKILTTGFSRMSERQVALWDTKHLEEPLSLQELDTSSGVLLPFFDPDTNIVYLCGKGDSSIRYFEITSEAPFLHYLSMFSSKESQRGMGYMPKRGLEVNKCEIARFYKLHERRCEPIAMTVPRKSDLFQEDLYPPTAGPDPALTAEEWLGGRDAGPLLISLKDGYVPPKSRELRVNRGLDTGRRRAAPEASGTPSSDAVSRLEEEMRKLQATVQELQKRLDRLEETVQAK
UniProt Q9Y6N1: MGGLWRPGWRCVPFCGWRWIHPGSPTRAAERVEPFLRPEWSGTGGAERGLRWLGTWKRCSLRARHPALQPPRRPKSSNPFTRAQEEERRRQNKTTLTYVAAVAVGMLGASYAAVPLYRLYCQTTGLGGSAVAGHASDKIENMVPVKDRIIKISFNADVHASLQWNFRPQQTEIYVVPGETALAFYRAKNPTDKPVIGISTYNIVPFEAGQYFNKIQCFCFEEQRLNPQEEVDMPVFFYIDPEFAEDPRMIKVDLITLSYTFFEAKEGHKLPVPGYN
UniProt P55060: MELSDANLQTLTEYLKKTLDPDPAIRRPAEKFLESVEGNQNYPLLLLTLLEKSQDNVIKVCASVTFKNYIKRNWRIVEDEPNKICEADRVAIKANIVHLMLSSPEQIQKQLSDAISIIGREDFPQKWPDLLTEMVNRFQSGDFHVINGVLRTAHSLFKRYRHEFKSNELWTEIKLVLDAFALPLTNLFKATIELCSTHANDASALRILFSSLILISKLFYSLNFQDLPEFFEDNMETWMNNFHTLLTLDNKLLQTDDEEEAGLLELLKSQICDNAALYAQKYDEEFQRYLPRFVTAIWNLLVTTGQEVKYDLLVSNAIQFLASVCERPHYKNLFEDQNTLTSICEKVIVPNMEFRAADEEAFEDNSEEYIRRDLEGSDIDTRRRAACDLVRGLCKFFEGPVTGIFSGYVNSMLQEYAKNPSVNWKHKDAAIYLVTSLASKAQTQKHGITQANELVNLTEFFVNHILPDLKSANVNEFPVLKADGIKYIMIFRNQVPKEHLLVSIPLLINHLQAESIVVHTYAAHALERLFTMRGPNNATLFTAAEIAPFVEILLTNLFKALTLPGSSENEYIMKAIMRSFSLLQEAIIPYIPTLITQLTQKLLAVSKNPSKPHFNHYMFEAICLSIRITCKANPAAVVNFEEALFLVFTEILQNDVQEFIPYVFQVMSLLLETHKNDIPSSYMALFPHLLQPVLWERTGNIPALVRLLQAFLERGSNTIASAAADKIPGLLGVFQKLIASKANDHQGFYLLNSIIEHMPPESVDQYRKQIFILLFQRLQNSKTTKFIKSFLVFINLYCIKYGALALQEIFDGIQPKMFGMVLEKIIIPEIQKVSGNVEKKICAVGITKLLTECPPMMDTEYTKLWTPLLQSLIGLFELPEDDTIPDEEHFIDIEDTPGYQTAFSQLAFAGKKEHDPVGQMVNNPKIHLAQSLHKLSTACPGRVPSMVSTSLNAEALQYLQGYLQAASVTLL
UniProt Q9H3G5: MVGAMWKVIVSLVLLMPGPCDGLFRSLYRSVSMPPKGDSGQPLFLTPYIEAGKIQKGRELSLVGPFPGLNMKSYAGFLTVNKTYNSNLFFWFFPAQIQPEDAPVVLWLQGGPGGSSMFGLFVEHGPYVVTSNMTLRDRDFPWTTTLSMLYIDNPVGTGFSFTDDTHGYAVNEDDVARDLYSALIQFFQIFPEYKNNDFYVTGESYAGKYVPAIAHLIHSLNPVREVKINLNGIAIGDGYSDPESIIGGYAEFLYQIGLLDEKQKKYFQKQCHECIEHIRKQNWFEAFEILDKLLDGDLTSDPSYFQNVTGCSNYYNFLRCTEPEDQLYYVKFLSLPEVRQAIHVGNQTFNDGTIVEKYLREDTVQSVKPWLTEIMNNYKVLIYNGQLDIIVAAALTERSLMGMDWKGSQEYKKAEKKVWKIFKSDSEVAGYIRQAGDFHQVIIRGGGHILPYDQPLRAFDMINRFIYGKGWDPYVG
UniProt P50416: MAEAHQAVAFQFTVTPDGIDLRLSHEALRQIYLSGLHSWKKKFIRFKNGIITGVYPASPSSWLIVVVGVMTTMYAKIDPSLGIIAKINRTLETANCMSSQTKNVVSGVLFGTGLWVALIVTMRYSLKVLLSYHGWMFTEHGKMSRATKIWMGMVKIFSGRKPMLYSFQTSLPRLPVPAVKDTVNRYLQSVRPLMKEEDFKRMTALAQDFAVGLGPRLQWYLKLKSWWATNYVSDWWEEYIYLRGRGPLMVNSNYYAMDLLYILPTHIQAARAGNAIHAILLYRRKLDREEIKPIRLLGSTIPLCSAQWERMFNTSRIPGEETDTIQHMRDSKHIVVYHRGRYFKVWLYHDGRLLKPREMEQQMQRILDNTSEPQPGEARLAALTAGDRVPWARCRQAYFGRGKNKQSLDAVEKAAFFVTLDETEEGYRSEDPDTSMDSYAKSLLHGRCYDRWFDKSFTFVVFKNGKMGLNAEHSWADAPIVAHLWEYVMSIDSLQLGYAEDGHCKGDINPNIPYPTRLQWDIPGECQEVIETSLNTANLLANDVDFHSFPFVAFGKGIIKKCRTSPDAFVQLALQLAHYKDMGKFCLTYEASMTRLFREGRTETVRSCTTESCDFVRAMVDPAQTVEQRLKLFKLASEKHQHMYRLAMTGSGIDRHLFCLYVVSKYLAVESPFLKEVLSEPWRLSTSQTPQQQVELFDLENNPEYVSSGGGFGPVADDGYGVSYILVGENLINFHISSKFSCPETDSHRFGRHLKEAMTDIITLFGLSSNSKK
UniProt A4D0V7: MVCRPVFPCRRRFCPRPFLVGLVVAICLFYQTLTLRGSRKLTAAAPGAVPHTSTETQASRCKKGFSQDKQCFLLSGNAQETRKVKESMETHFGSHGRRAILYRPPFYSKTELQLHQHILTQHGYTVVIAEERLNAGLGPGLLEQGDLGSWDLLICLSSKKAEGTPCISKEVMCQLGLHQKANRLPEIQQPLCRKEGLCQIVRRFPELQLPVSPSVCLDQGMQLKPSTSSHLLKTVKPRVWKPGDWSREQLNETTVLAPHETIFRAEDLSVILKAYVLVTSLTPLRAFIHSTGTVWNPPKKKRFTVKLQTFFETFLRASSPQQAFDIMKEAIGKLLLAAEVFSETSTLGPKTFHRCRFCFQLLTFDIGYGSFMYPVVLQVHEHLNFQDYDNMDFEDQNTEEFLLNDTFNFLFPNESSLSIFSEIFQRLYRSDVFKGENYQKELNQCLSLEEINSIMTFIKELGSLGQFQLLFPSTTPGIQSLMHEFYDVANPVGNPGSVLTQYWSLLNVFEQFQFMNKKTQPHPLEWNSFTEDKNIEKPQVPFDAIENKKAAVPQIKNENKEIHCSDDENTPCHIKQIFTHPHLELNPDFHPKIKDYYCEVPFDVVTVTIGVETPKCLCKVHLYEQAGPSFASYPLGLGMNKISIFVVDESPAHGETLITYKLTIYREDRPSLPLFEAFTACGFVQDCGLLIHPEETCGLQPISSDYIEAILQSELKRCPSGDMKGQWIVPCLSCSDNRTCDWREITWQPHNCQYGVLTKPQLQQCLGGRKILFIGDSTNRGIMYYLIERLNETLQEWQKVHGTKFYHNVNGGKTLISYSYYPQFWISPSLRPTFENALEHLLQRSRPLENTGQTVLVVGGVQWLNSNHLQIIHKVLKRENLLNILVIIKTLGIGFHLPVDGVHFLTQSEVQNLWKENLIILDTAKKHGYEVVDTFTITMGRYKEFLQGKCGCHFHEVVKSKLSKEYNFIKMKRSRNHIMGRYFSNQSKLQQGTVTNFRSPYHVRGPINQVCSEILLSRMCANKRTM
UniProt O75718: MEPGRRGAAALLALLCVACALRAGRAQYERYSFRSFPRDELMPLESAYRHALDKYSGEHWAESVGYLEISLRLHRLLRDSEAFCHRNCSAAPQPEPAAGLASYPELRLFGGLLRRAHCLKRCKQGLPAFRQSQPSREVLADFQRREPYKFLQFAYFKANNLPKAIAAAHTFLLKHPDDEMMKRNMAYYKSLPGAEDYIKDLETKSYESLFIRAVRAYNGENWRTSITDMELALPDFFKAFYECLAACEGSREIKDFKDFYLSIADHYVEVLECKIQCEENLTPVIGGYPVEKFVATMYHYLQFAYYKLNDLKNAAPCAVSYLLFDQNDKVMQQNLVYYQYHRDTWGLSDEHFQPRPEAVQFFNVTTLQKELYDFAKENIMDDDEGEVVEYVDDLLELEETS
UniProt Q49B96: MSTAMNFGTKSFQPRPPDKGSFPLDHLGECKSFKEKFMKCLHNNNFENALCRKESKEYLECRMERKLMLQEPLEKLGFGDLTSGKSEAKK
UniProt P68400, whole entry, looked up: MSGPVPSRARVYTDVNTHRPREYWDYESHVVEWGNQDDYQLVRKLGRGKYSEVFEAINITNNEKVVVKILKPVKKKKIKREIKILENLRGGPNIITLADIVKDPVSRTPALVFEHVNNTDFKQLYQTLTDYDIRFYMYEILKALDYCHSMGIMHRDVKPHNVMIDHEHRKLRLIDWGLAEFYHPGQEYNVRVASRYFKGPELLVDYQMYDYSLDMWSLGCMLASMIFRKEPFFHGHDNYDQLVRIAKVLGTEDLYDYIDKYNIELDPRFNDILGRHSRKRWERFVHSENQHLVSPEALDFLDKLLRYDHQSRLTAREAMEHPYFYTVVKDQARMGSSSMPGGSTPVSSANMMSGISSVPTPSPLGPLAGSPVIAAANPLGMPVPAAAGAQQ
UniProt O75534: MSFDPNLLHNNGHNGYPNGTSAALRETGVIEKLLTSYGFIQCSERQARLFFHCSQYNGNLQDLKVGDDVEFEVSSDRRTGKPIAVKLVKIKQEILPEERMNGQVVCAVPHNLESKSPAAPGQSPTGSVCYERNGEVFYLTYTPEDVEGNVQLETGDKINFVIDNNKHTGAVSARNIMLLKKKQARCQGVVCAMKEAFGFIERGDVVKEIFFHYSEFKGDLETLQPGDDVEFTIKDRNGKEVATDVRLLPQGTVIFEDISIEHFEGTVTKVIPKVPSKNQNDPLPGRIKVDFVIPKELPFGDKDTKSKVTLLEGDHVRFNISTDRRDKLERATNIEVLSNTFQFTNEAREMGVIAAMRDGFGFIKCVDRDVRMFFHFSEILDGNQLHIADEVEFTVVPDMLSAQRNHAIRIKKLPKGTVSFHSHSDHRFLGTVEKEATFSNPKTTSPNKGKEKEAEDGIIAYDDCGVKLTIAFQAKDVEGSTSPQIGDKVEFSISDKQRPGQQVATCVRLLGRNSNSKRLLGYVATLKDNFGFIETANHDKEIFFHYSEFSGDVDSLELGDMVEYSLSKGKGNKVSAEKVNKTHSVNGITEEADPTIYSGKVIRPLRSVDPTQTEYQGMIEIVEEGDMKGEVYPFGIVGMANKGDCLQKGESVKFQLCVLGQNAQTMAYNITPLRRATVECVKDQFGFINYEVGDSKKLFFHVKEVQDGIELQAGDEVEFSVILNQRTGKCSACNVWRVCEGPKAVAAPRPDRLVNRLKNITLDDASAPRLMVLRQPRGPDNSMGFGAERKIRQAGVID
UniProt Q9P021, whole entry, looked up: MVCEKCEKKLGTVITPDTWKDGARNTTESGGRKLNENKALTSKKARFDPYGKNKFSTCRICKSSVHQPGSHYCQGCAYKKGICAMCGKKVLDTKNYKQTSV

Columns and labels:
Assay in all cases: log2 fold change, soluble protein after heating vs DMSO (PISA); higher = thermal stabilisation; K562 cells, 10 uM, 30 min; active = over 0.2 and 3.5 SD of the protein, either way, in both replicates (recomputed)
IRAK-1-4 Inhibitor I = compound: C1COCCN1CCN2C3=CC=CC=C3N=C2NC(=O)C4=CC(=CC=C4)[N+](=O)[O-] [IRAK-1-4 Inhibitor I]
Method in brief: (§1)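 K562 cells at 2×10^6 cells/mL were given 10 μM compound for 30 min. Aliquots then went through 3 min of heating across 48°C-58°C, were pooled, and were extracted in PBS with 0.5% NP-40 at 4°C, and the supernatant after 21,000xg for 90 min was quantified by TMTpro 16plex LC-MS/MS with channel sums equalised. Thermal stability relative to control samples, from duplicates, is given as log2 fold change.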

ibrutinib = compound: C=CC(=O)N1CCC[C@@H](n2nc(-c3ccc(Oc4ccccc4)cc3)c3c(N)ncnc32)C1 [ibrutinib]
Method in brief: as §1

[1] = compound: CC(=O)c1cnc2ccc(-c3cc(Cl)c(O)c(Cl)c3)nc2c1N[C@H]1CC[C@H](CN(C)C)CC1
Method in brief: as §1

ralimetinib = compound: CC(C)(C)Cn1c(N)nc2ccc(-c3[nH]c(C(C)(C)C)nc3-c3ccc(F)cc3)nc21 [ralimetinib]
Method in brief: as §1

[2] = compound: CC(C)(O)CC(=O)NCCn1ccc2ncnc(Nc3ccc(Oc4cccc(C(F)(F)F)c4)c(Cl)c3)c21
Method in brief: as §1

[3] = compound: CC(C)C1=C2N=C(C=C(N2N=C1)NCC3=CC=CC=C3)NCCCCCCN
Method in brief: as §1

[4] = compound: CC(C)C[C@@H](C=O)NC(=O)[C@H](CC(C)C)NC(=O)[C@H](CC(C)C)NC(=O)OCc1ccccc1
Method in brief: as §1

pinometostat = compound: CC(C)N(C[C@H]1O[C@@H](n2cnc3c(N)ncnc32)[C@H](O)[C@@H]1O)[C@H]1C[C@@H](CCc2nc3cc(C(C)(C)C)ccc3[nH]2)C1 [pinometostat]
Method in brief: as §1

[5] = compound: CC1=C(C(CC(=O)N1)C2=CC=C(C=C2)C(F)(F)F)C(=O)NC3=C(C=C4C(=C3)C=NN4)F
Method in brief: as §1

[6] = compound: CC1=C(C2=C(C=C1)C(=O)C3=CC=CC=C3N2CCCN)C
Method in brief: as §1

Target | log2 fold change (IRAK-1-4 Inhibitor I) | log2 fold change (ibrutinib) | log2 fold change [1] | log2 fold change (ralimetinib) | log2 fold change [2] | log2 fold change [3] | log2 fold change [4] | log2 fold change (pinometostat) | log2 fold change [5] | log2 fold change [6]
COX18 (UniProt Q8N8Q8) | inactive: 0.047 | inactive: 0.05 | inactive: -0.096 | inactive: -0.016 | inactive: -0.006 | inactive: -0.073 | inactive: 0.061 | inactive: -0.028 | inactive: -0.008 | inactive: 0.025
CSNK1A1L (UniProt Q8N752) | inactive: 0.003 | inactive: -0.025 | inactive: -0.042 | inactive: 0.016 | inactive: 0.058 | inactive: -0.188 | inactive: 0.103 | inactive: 0.101 | inactive: 0.068 | inactive: 0.048
COTL1 (UniProt Q14019) | inactive: -0.016 | inactive: -0.063 | inactive: 0.009 | inactive: -0.026 | inactive: 0 | inactive: 0.015 | inactive: -0.052 | inactive: -0.076 | inactive: -0.012 | inactive: -0.025
CREB1 (UniProt P16220) | inactive: 0.024 | inactive: 0 | inactive: -0.08 | inactive: -0.036 | inactive: 0.053 | inactive: 0.008 | inactive: 0.009 | inactive: -0.026 | inactive: -0.006 | inactive: 0.098
COPS6 (UniProt Q7L5N1) | inactive: 0.03 | inactive: 0.015 | inactive: 0.007 | inactive: 0.031 | inactive: -0.019 | inactive: 0.009 | inactive: -0.016 | inactive: -0.049 | inactive: 0.051 | inactive: 0.003
COQ5 (UniProt Q5HYK3) | inactive: 0.031 | inactive: 0.065 | inactive: -0.075 | inactive: -0.008 | inactive: -0.055 | inactive: -0.075 | inactive: 0.004 | inactive: -0.022 | inactive: -0.012 | inactive: -0.046
CRACR2A isoform 2 (UniProt Q9BSW2) | inactive: 0.012 | inactive: 0.002 | inactive: -0.015 | inactive: 0.009 | inactive: 0.045 | inactive: 0.153 | inactive: 0.037 | inactive: -0.005 | inactive: -0.013 | inactive: 0.111
COPE (UniProt O14579) | inactive: -0.017 | inactive: -0.058 | inactive: -0.054 | inactive: -0.062 | inactive: -0.027 | inactive: 0.069 | inactive: -0.01 | inactive: -0.026 | inactive: -0.01 | inactive: -0.155
CORO1C isoform 3 (UniProt Q9ULV4) | inactive: -0.005 | inactive: -0.026 | inactive: 0.034 | inactive: 0.012 | inactive: 0.046 | inactive: 0.114 | inactive: 0.011 | inactive: -0.036 | inactive: -0.064 | inactive: 0.003
CORO1A (UniProt P31146) | inactive: -0.027 | inactive: 0.001 | inactive: -0.02 | inactive: 0 | inactive: -0.01 | inactive: -0.099 | inactive: 0.114 | inactive: 0 | inactive: 0.029 | inactive: -0.022
COX11 (UniProt Q9Y6N1) | inactive: 0.013 | inactive: 0.021 | inactive: -0.051 | inactive: -0.184 | inactive: -0.032 | inactive: 0.067 | inactive: 0.044 | inactive: -0.035 | inactive: -0.053 | inactive: 0.06
CSE1L (UniProt P55060) | inactive: 0.001 | inactive: -0.028 | inactive: 0.033 | inactive: -0.011 | inactive: -0.144 | inactive: -0.145 | inactive: -0.029 | inactive: -0.027 | – | inactive: -0.02
COMMD4 (UniProt Q9H0A8) | inactive: 0.005 | inactive: -0.01 | inactive: -0.049 | inactive: 0.018 | inactive: -0.117 | inactive: 0.018 | inactive: -0.021 | inactive: -0.083 | inactive: 0.03 | inactive: 0.118
CREB3L2 (UniProt Q70SY1) | inactive: 0.055 | inactive: 0.168 | inactive: -0.108 | inactive: -0.01 | inactive: -0.08 | inactive: 0.322 | inactive: 0.607 | inactive: -0.193 | – | inactive: 0.074
CPQ (UniProt Q9Y646) | inactive: 0.095 | inactive: 0.01 | inactive: -0.034 | inactive: -0.011 | inactive: 0.003 | inactive: 0.049 | inactive: -0.032 | inactive: 0.007 | – | inactive: 0.006
CPVL (UniProt Q9H3G5) | inactive: 0.055 | inactive: -0.06 | inactive: 0.058 | inactive: -0.05 | inactive: -0.078 | inactive: -0.043 | inactive: 0.078 | inactive: -0.029 | inactive: 0.041 | inactive: 0.075
COX4I1 (UniProt P13073) | inactive: 0.024 | inactive: 0.017 | inactive: -0.008 | inactive: -0.021 | inactive: 0.028 | inactive: 0.037 | inactive: 0.014 | inactive: -0.012 | inactive: 0.017 | inactive: 0.002
CPT1A (UniProt P50416) | inactive: -0.163 | inactive: -0.024 | inactive: -0.103 | inactive: 0.05 | inactive: 0.049 | inactive: 0.195 | inactive: -0.03 | inactive: 0.06 | – | inactive: -0.047
COX6B1 (UniProt P14854) | inactive: -0.046 | inactive: -0.038 | inactive: -0.013 | inactive: -0.144 | inactive: -0.103 | inactive: 0.038 | inactive: -0.01 | inactive: 0.017 | – | inactive: 0.103
CPED1 (UniProt A4D0V7) | inactive: -0.134 | inactive: -0.048 | inactive: -0.236 | inactive: -0.01 | inactive: -0.045 | inactive: 0.008 | inactive: 0.142 | inactive: 0.076 | inactive: 0.125 | inactive: -0.122
CRTAP (UniProt O75718) | inactive: -0.038 | inactive: -0.061 | inactive: 0.031 | inactive: 0.072 | inactive: 0.127 | inactive: -0.078 | inactive: 0.068 | inactive: 0.053 | inactive: 0.002 | inactive: 0.048
COX19 (UniProt Q49B96) | inactive: 0.015 | inactive: -0.043 | inactive: -0.017 | inactive: -0.067 | inactive: 0.008 | inactive: -0.025 | inactive: -0.006 | inactive: -0.016 | inactive: 0.009 | inactive: 0.047
CRTC2 (UniProt Q53ET0) | inactive: -0.024 | inactive: -0.048 | inactive: -0.151 | inactive: 0 | inactive: -0.053 | inactive: -0.058 | inactive: -0.032 | inactive: 0.01 | – | inactive: 0.101
COPB2 (UniProt P35606) | inactive: -0.001 | inactive: -0.005 | inactive: 0.008 | inactive: -0.006 | inactive: -0.015 | inactive: 0.05 | inactive: -0.013 | inactive: -0.003 | inactive: -0.002 | inactive: 0.023
CSNK2A1 (UniProt P68400) | inactive: 0.022 | inactive: 0.029 | active: 0.245 | inactive: -0.082 | inactive: 0.006 | inactive: -0.064 | inactive: -0.021 | inactive: 0.103 | – | inactive: 0.159
COPB1 (UniProt P53618) | inactive: -0.018 | inactive: -0.027 | inactive: 0.005 | inactive: -0.012 | inactive: -0.028 | inactive: 0.067 | inactive: -0.014 | inactive: -0.009 | inactive: -0.011 | inactive: 0
CSDE1 isoform 4 (UniProt O75534) | inactive: -0.142 | inactive: -0.039 | inactive: 0.004 | inactive: 0.184 | inactive: 0.025 | inactive: -0.313 | inactive: 0.156 | inactive: 0.323 | inactive: 0.007 | inactive: -0.06
COX6C (UniProt P09669) | inactive: -0.031 | inactive: -0.098 | inactive: 0.047 | inactive: -0.089 | inactive: -0.052 | inactive: -0.02 | inactive: -0.053 | inactive: -0.122 | inactive: 0.004 | inactive: 0.022
COPS4 (UniProt Q9BT78) | inactive: 0.015 | inactive: 0.043 | inactive: 0.01 | inactive: -0.004 | inactive: -0.014 | inactive: 0.009 | inactive: -0.008 | inactive: -0.048 | – | inactive: 0.028
CRIPT (UniProt Q9P021) | inactive: -0.039 | inactive: 0.067 | inactive: 0.069 | inactive: -0.084 | inactive: -0.092 | inactive: 0.066 | inactive: 0.078 | inactive: 0.012 | inactive: -0.013 | inactive: -0.01

2 entries picked at random from those above, as already listed:
Target | log2 fold change (IRAK-1-4 Inhibitor I) | log2 fold change (ibrutinib) | log2 fold change [1] | log2 fold change (ralimetinib) | log2 fold change [2] | log2 fold change [3] | log2 fold change [4] | log2 fold change (pinometostat) | log2 fold change [5] | log2 fold change [6]
COPE (UniProt O14579) | inactive: -0.017 | inactive: -0.058 | inactive: -0.054 | inactive: -0.062 | inactive: -0.027 | inactive: 0.069 | inactive: -0.01 | inactive: -0.026 | inactive: -0.01 | inactive: -0.155
CRTAP (UniProt O75718) | inactive: -0.038 | inactive: -0.061 | inactive: 0.031 | inactive: 0.072 | inactive: 0.127 | inactive: -0.078 | inactive: 0.068 | inactive: 0.053 | inactive: 0.002 | inactive: 0.048
